Data reported in PubChem BioAssay AID2685 (National Center for Advancing Translational Sciences (NCATS), 2010).
The other results are listed elsewhere or left out. Further columns of the screen follow, without active or inactive calls. The list favours compounds with an active or inconclusive main result. The note in brackets gives the kind of curve behind each potency; many fits are weak.

Experiment: qHTS Assay for Lipid Storage Modulators in Drosophila S3 Cells;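 for cell number change: cells counted by Cell Tracker Red CMTPX staining in the red channel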
Settings: BODIPY lipid droplet fluorescence, 18-24 h; for cell number change: measured here: cell count max response, cells fed with added oleic acid
How it was run: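 Drosophila S3 cells got compounds at several concentrations plus oleic acid (400 uM solution). Laser-scanning cytometry with 488 nm excitation read lipid droplets at 500-530 nm and cells at 575-640 nm. Percent activity was relative to 20 uM Triacsin C.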

[1] = measured here: lipid fluorescence (Fed channel) AC50, cells fed with added oleic acid
[2] = measured here: cell number channel AC50, cells fed with added oleic acid

CCC(C)C(NC(N)=O)C(=O)Nc1ccc(C)c(Cl)c1 (stereo not given)
cell number change: 0.157% | AC50 [1]: 32.6 µM [falling, single point]

Cc1cc(C)c(S(=O)(=O)/N=C2/C=C(Sc3ncn[nH]3)C(=O)c3ccccc32)cc1C
cell number change: -65.8% | AC50 [2]: 25.9 µM [falling, single point] | AC50 [1]: 20.6 µM [falling, partial curve]

CC1=CC(C)(C)Nc2ccc(OC(=O)c3ccco3)cc21
cell number change: -99.2% | AC50 [2]: 20.6 µM [falling, single point] | AC50 [1]: 29.1 µM [falling, single point]

CCc1nnc(NC(=O)c2cc(C)nc3ccccc23)s1
cell number change: 23.7% | AC50 [1]: 29.1 µM [rising, single point]

CCOc1ccc(/C=N/NC(=O)c2ccccc2O)cc1CN1CC2CC(C1)c1cccc(=O)n1C2 (stereo not given)
cell number change: -27.8% | AC50 [1]: 29.1 µM [falling, single point]

Cc1ccc(N(CC(=O)NCC2CCCO2)C(=O)CCC(=O)Nc2cc(C)on2)cc1 (stereo not given)
cell number change: 21.7% | AC50 [1]: 0.00461 µM [rising, full curve, poor fit]

Cc1cccc(-c2nnnn2-c2cccc(C)c2)c1
cell number change: 52.4% | AC50 [2]: 14.6 µM [rising, partial curve, poor fit]

COC(=O)C1C2C=CC3(CN(CC4CCCO4)C(=O)C13)O2 (stereo not given)
cell number change: -123% | AC50 [2]: 29.1 µM [falling, single point]

Oc1ccc(Br)cc1-c1n[nH]c(=S)n1Cc1ccccc1
cell number change: -36% | AC50 [2]: 14.6 µM [falling, single point]

CN1C(=O)C(C)(C)c2cc(S(=O)(=O)N3CCCC(C(=O)Nc4ccc(Cl)cc4)C3)ccc21 (stereo not given)
cell number change: 7.78% | AC50 [1]: 29.1 µM [falling, single point]

Cc1ccc(NC(=O)CN(C)C(=O)CSc2nc3ccccc3c(=O)n2CCO)cc1
AC50 [2]: 2.59 µM [rising, single point]

COc1ccccc1C(=O)NCCC(=O)Nc1ccc(OC(F)(F)F)cc1
cell number change: -4.76% | AC50 [1]: 6.51 µM [falling, single point]

CCOc1cc(/C=N/NC(=O)c2ccc(O)cc2)ccc1Oc1nc(Cl)ncc1F
cell number change: 2.38% | AC50 [1]: 6.51 µM [falling, single point]

CC(=O)Nc1ccc(S(=O)(=O)N2CC3(C)CC2CC(C)(C)C3)cc1 (stereo not given)
AC50 [2]: 6.51 µM [falling, single point] | AC50 [1]: 0.58 µM [falling, single point]

O=C(CSC1=NNC(c2ccccn2)S1)Nc1ccccc1 (stereo not given)
cell number change: 8.79% | AC50 [2]: 2.31 µM [rising, single point] | AC50 [1]: 2.06 µM [rising, partial curve, poor fit]

c1ccc(CNc2ccc3c(c2)ncn3C2CCCCC2)nc1
AC50 [2]: 2.31 µM [rising, partial curve] | AC50 [1]: 2.06 µM [rising, partial curve]

CC1CN(S(=O)(=O)c2cccc(-c3cn4ccccc4n3)c2)CC(C)O1 (stereo not given)
cell number change: -19.9% | AC50 [1]: 29.1 µM [falling, partial curve, poor fit]

Cc1cccc(NC(=O)c2ccc(N3C(=O)C4C5C=CC(C6CC56)C4C3=O)cc2)c1 (stereo not given)
cell number change: -31.2% | AC50 [2]: 29.1 µM [falling, single point] | AC50 [1]: 23.1 µM [falling, single point]

CCc1cc(=O)oc2c3c(cc(OCC(=O)N[C@H](C(=O)O)[C@H](C)CC)c12)OC(C)(C)CC3
cell number change: -33.3% | AC50 [2]: 0.146 µM [falling, full curve, poor fit] | AC50 [1]: 6.51 µM [rising, single point]

CCCCn1c(N)c(N(CC(C)C)C(=O)CCCc2nc3ccccc3s2)c(=O)[nH]c1=O
cell number change: -34.5% | AC50 [2]: 10.3 µM [falling, partial curve, poor fit]

NC(=NC(=O)c1ccc(OCC(F)(F)F)nc1)c1ccccc1
cell number change: -6.45% | AC50 [1]: 14.6 µM [falling, partial curve]

COc1ccc(CCNC(=S)Nc2ccc(C)cc2C)cc1
cell number change: -3% | AC50 [1]: 20.6 µM [falling, single point]

COc1ccc(OC)c(CNC(=O)CCn2c(=O)c3cccn3c3ccc(F)cc32)c1
cell number change: 14%

COc1ccc(S(=O)(=O)N2CCCCC2)cc1NC(=O)C1CC1C (stereo not given)
cell number change: 13.9% | AC50 [1]: 0.146 µM [falling, full curve, poor fit]

O=S(=O)(c1ccc(Cl)s1)N1CCc2ccccc2C1
cell number change: 161% | AC50 [2]: 20.6 µM [rising, partial curve] | AC50 [1]: 29.1 µM [rising, single point]

O=C(Nc1cnc2ccccc2c1)c1ccco1
cell number change: 9.84%

CC(NC(=O)c1cc(S(=O)(=O)N2CCCC2)cn1C)c1ccccc1 (stereo not given)
cell number change: 0.865% | AC50 [1]: 13 µM [rising, partial curve, poor fit]

CCOC(=O)C1CCN(Cc2c(C(=O)N3CCOCC3)nc3c(C)cccn23)CC1
cell number change: -2.05%

O=[N+]([O-])c1cc(CN2CCCC2)ccc1Sc1ccc(Cl)cc1
cell number change: -44.3% | AC50 [2]: 29.1 µM [falling, single point] | AC50 [1]: 1.64 µM [falling, partial curve]

CC(C)(C)c1csc(NC(=O)C2COc3ccccc3O2)n1 (stereo not given)
cell number change: 1.76% | AC50 [1]: 2.06 µM [rising, full curve, poor fit]

O=C(COC(=O)c1cnccn1)NCc1ccc(Cl)cc1
cell number change: 92.3%

CN(CC(O)COc1ccc(S(=O)(=O)N2CCOCC2)cc1Cl)C1CCCCC1 (stereo not given)
cell number change: -15.3% | AC50 [2]: 0.116 µM [falling, full curve, poor fit]

CCOC(=O)Cn1c(CN2CCc3ccccc3C2)nc2c1c(=O)n(C)c(=O)n2C
cell number change: -29.8% | AC50 [2]: 0.103 µM [rising, full curve, poor fit] | AC50 [1]: 5.8 µM [falling, full curve]

CC(NC(=O)c1ccc(N2CCCC2=O)cc1)c1ccccc1 (stereo not given)
cell number change: -15.8%

Cc1cnc(NC(=O)c2ccc(Cl)nc2)s1
cell number change: -29.8%

CCCCc1ccccc1NC(=S)NC1CCCC1
cell number change: -37.6% | AC50 [1]: 29.1 µM [falling, single point]

CC(=O)Nc1c(C(=O)N2CCOCC2)cnn1-c1ccc(C)c(C)c1
cell number change: 99% | AC50 [2]: 29.1 µM [rising, single point] | AC50 [1]: 25.9 µM [rising, single point]

CCOC(=O)C1(Cc2ccccc2)CCN(Cc2ccc3cc(NC(C)=O)ccc3n2)CC1
AC50 [1]: 6.51 µM [rising, single point]

COCCn1c(=O)[nH]c2cc(C(=O)NCCN3CCN(c4ccccc4)CC3)ccc2c1=O
cell number change: 6.77% | AC50 [1]: 20.6 µM [falling, partial curve, poor fit]

CC1(C)C(=O)Nc2ccccc2N1C(=O)CSc1ncccn1
cell number change: -2.28% | AC50 [2]: 0.00411 µM [falling, full curve, poor fit] | AC50 [1]: 0.0058 µM [falling, full curve, poor fit]

Cc1cc(NC(=O)/C=C/c2ccc(F)cc2)n(-c2nc3ccccc3[nH]2)n1
cell number change: -27.8% | AC50 [1]: 29.1 µM [falling, single point]

CN(C(=O)C1CCN(S(=O)(=O)c2ccccc2)CC1)c1c(N)n(Cc2ccccc2)c(=O)[nH]c1=O
cell number change: -29.3% | AC50 [1]: 6.51 µM [falling, partial curve, poor fit]

CCCn1c(N)c(C(=O)CSc2nnc3ccccn23)c(=O)n(C)c1=O
cell number change: 0.803%

COc1ccc(C(=O)NCCCn2nc(C)cc2C)cc1S(=O)(=O)N1CCOCC1
cell number change: 137% | AC50 [2]: 20.6 µM [rising, partial curve] | AC50 [1]: 18.4 µM [rising, partial curve]

Cc1ccc(NC(=O)/C(=C/c2ccncc2)NC(=O)c2ccccc2)cc1
cell number change: -2.63% | AC50 [1]: 36.6 µM [falling, partial curve, poor fit]

CCCCN(CC)S(=O)(=O)c1c(C)[nH]c(=O)[nH]c1=O
cell number change: -33.3% | AC50 [2]: 2.59 µM [falling, partial curve, poor fit] | AC50 [1]: 0.058 µM [falling, full curve]

CCN(CC)S(=O)(=O)c1cc(C(=O)Nc2cc(S(=O)(=O)N3CCOCC3)ccc2N2CCCC2)ccc1F
cell number change: -4.59% | AC50 [2]: 0.082 µM [falling, full curve, poor fit] | AC50 [1]: 6.51 µM [falling, single point]

C=CCSc1nncn1/N=C/c1ccc(OC)cc1
cell number change: -1.16% | AC50 [1]: 1.3 µM [rising, partial curve]

O=C(N/N=C\c1ccc(CN(Cc2ccc(Cl)cc2)S(=O)(=O)c2ccccc2)o1)C(=O)Nc1ccc(F)cc1
cell number change: 0.58% | AC50 [1]: 18.4 µM [rising, partial curve]

Cc1ccc(S(=O)(=O)NCCCNS(=O)(=O)c2ccccc2)cc1
cell number change: 31.7%

NC(=O)c1cc(-c2ccccc2)nc(N2CCCCCC2)n1
cell number change: -47.3% | AC50 [2]: 29.1 µM [falling, single point] | AC50 [1]: 20.6 µM [falling, single point]

Cc1cccc(N2CC(C)Cn3c2nc2c3c(=O)n(CC(=O)OCc3ccccc3)c(=O)n2C)c1 (stereo not given)
cell number change: 0.656% | AC50 [2]: 0.146 µM [rising, full curve, poor fit] | AC50 [1]: 2.06 µM [rising, partial curve]

CN1C(=O)[C@H]2[C@@H](/C=C/c3ccccc3)N3C(=O)CN(Cc4ccccn4)C(=O)[C@@]3(C)[C@H]2C1=O
cell number change: -3.59%

CSCC[C@H](N)C(=O)N1CCC(C(=O)N[C@H](C(=O)NCc2ccccc2F)C(C)C)CC1
cell number change: -13.2% | AC50 [1]: 0.00461 µM [falling, full curve, poor fit]

CCCCCCc1cc2cc(S(=O)(=O)c3ccc(Cl)cc3)c(=O)oc2cc1O
cell number change: -75.3% | AC50 [2]: 20.6 µM [falling, single point] | AC50 [1]: 18.4 µM [falling, single point]
